Experimental data taken from patent US20230183364A1.
These are yes or no findings as the source states them, for the method shown. Some entries that bind do so weakly or less than the wild type.

Chains of the proteins cited; added tags and fusions are not shown. Lines headed by an entry give the natural chain unless they say otherwise; changes in a name come on top. Residues count along the entry.
UniProt Q14627: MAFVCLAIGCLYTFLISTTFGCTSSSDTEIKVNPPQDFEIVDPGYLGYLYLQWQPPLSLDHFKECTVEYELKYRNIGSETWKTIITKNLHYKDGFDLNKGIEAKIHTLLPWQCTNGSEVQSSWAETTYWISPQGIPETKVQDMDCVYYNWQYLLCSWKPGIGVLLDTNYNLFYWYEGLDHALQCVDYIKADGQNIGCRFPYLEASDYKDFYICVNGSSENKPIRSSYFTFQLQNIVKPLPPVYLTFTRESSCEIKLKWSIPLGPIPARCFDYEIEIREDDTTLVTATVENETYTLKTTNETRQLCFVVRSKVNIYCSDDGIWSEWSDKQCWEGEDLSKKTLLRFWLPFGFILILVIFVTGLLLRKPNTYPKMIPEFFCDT
UniProt P35225, residues 35-146: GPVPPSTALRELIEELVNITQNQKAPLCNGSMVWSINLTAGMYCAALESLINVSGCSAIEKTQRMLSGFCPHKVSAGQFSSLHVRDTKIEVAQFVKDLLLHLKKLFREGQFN

Target: Biotinylated human IL13Rα2 (hIL13Rα2-avi) (human) (UniProt Q14627)
Assay: SPR, hIL13Rα2-avi pre-incubated with IL-13

Q: How did the binding turn out when “human IL-13 (Prospec #cyt-446) (from UniProt P35225 35-146) (ligand)” was run?
A: binds
